This assay has as its target T1, recombinant His-tagged FGF12 (UniProt P61328).
T1 sequence: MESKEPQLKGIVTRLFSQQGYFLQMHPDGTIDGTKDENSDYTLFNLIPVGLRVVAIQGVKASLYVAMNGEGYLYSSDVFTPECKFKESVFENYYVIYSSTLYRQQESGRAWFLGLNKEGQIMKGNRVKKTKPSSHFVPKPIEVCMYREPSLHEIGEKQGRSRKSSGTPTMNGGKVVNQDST
Nature of the assay: affinity purification with mass spectrometry; recombinant His-tagged FGF12 coupled to Ni-NTA / Ni Sepharose resin, incubated with U2OS cell lysate; on-bead trypsin digestion, LC-MS/MS; only the target purified.

From PMC9677703 come the findings set out here.

These are yes or no findings as the source states them, for the method shown. Binding seen in cells or lysates may run through a third protein. A yes stands for co-enrichment or nearness to the bait. Other partners may have been found. Tags and fused reporters may be left off the sequences shown.

B1: Thyroid hormone receptor-associated protein 3 (protein, UniProt Q9Y2W1 1-955)
chain: MSKTNKSKSGSRSSRSRSASRSRSRSFSKSRSRSRSLSRSRKRRLSSRSRSRSYSPAHNRERNHPRVYQNRDFRGHNRGYRRPYYFRGRNRGFYPWGQYNRGGYGNYRSNWQNYRQAYSPRRGRSRSRSPKRRSPSPRSRSHSRNSDKSSSDRSRRSSSSRSSSNHSRVESSKRKSAKEKKSSSKDSRPSQAAGDNQGDEAKEQTFSGGTSQDTKASESSKPWPDATYGTGSASRASAVSELSPRERSPALKSPLQSVVVRRRSPRPSPVPKPSPPLSSTSQMGSTLPSGAGYQSGTHQGQFDHGSGSLSPSKKSPVGKSPPSTGSTYGSSQKEESAASGGAAYTKRYLEEQKTENGKDKEQKQTNTDKEKIKEKGSFSDTGLGDGKMKSDSFAPKTDSEKPFRGSQSPKRYKLRDDFEKKMADFHKEEMDDQDKDKAKGRKESEFDDEPKFMSKVIGANKNQEEEKSGKWEGLVYAPPGKEKQRKTEELEEESFPERSKKEDRGKRSEGGHRGFVPEKNFRVTAYKAVQEKSSSPPPRKTSESRDKLGAKGDFPTGKSSFSITREAQVNVRMDSFDEDLARPSGLLAQERKLCRDLVHSNKKEQEFRSIFQHIQSAQSQRSPSELFAQHIVTIVHHVKEHHFGSSGMTLHERFTKYLKRGTEQEAAKNKKSPEIHRRIDISPSTFRKHGLAHDEMKSPREPGYKAEGKYKDDPVDLRLDIERRKKHKERDLKRGKSRESVDSRDSSHSRERSAEKTEKTHKGSKKQKKHRRARDRSRSSSSSSQSSHSYKAEEYTEETEEREESTTGFDKSRLGTKDFVGPSERGGGRARGTFQFRARGRGWGRGNYSGNNNNNSNNDFQKRNREEEWDPEYTPKSKKYYLHDDREGEGSDKWVSRGRGRGAFPRGRGRFMFRKSSTSPKWAHDKFSGEEGEIEDDESGTENREEKDNIQPTTE
In the case of B1, the binding entry is “binds”.

B2: treacle ribosome biogenesis factor 1 (protein, UniProt Q13428 1-1488)
chain: MAEARKRRELLPLIYHHLLRAGYVRAAREVKEQSGQKCFLAQPVTLLDIYTHWQQTSELGRKRKAEEDAALQAKKTRVSDPISTSESSEEEEEAEAETAKATPRLASTNSSVLGADLPSSMKEKAKAETEKAGKTGNSMPHPATGKTVANLLSGKSPRKSAEPSANTTLVSETEEEGSVPAFGAAAKPGMVSAGQADSSSEDTSSSSDETDVEGKPSVKPAQVKASSVSTKESPARKAAPAPGKVGDVTPQVKGGALPPAKRAKKPEEESESSEEGSESEEEAPAGTRSQVKASEKILQVRAASAPAKGTPGKGATPAPPGKAGAVASQTKAGKPEEDSESSSEESSDSEEETPAAKALLQAKASGKTSQVGAASAPAKESPRKGAAPAPPGKTGPAVAKAQAGKREEDSQSSSEESDSEEEAPAQAKPSGKAPQVRAASAPAKESPRKGAAPAPPRKTGPAAAQVQVGKQEEDSRSSSEESDSDREALAAMNAAQVKPLGKSPQVKPASTMGMGPLGKGAGPVPPGKVGPATPSAQVGKWEEDSESSSEESSDSSDGEVPTAVAPAQEKSLGNILQAKPTSSPAKGPPQKAGPVAVQVKAEKPMDNSESSEESSDSADSEEAPAAMTAAQAKPALKIPQTKACPKKTNTTASAKVAPVRVGTQAPRKAGTATSPAGSSPAVAGGTQRPAEDSSSSEESDSEEEKTGLAVTVGQAKSVGKGLQVKAASVPVKGSLGQGTAPVLPGKTGPTVTQVKAEKQEDSESSEEESDSEEAAASPAQVKTSVKKTQAKANPAAARAPSAKGTISAPGKVVTAAAQAKQRSPSKVKPPVRNPQNSTVLARGPASVPSVGKAVATAAQAQTGPEEDSGSSEEESDSEEEAETLAQVKPSGKTHQIRAALAPAKESPRKGAAPTPPGKTGPSAAQAGKQDDSGSSSEESDSDGEAPAAVTSAQVIKPPLIFVDPNRSPAGPAATPAQAQAASTPRKARASESTARSSSSESEDEDVIPATQCLTPGIRTNVVTMPTAHPRIAPKASMAGASSSKESSRISDGKKQEGPATQVSKKNPASLPLTQAALKVLAQKASEAQPPVARTQPSSGVDSAVGTLPATSPQSTSVQAKGTNKLRKPKLPEVQQATKAPESSDDSEDSSDSSSGSEEDGEGPQGAKSAHTLGPTPSRTETLVEETAAESSEDDVVAPSQSLLSGYMTPGLTPANSQASKATPKLDSSPSVSSTLAAKDDPDGKQEAKPQQAAGMLSPKTGGKEAASGTTPQKSRKPKKGAGNPQASTLALQSNITQCLLGQPWPLNEAQVQASVVKVLTELLEQERKKVVDTTKESSRKGWESRKRKLSGDQPAARTPRSKKKKKLGAGEGGEASVSPEKTSTTSKGKAKRDKASGDVKEKKGKGSLGSQGAKDEPEEELQKGMGTVEGGDQSNPKSKKEKKKSDKRKKDKEKKEKKKKAKKASTKDSESPSQKKKKKKKKTAEQTV
modifications: heavily phosphorylated (sites not given)
Take B2: the binding result is listed as “binds”.
